Reference: article PMC6739341
No constants are given. Whether binding was seen depends on the method and setting. Binding seen in cells or lysates may run through a third protein. Some binding calls cover weakened binding; strength is not graded here. For part of these data: Tags and fused reporters may be left off the sequences shown.

The chains behind the UniProt entries cited, without tags or fusion partners.
UniProt Q13263: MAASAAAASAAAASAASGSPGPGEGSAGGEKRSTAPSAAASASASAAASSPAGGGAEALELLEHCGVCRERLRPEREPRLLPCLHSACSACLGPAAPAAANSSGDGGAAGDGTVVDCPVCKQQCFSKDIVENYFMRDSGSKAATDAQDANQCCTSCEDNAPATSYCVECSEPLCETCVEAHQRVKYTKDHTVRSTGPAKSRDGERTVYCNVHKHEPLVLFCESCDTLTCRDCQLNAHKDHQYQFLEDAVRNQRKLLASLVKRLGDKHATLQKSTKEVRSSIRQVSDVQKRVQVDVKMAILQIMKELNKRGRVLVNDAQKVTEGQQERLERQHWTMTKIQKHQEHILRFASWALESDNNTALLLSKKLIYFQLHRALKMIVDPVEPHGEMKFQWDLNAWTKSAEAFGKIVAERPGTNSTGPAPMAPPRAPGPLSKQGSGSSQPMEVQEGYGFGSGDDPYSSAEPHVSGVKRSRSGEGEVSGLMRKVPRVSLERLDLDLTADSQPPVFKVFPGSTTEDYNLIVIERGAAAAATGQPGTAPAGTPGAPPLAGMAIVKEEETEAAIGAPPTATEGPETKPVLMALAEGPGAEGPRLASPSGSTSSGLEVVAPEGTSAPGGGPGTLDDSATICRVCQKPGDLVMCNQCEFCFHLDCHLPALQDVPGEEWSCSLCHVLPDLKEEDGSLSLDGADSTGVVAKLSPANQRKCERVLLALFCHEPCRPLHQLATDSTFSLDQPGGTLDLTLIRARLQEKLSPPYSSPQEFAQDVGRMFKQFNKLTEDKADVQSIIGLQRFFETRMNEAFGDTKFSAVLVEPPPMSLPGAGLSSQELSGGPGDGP
UniProt Q13185: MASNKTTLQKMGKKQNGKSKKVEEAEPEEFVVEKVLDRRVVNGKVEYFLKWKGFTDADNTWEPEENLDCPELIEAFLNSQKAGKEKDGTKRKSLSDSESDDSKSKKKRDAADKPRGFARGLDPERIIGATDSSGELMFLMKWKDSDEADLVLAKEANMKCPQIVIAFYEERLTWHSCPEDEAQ

Key:
[1] = target: T1, FLAG-C11orf46^R236H (human) (UniProt Q8N8R7); test: co-IP; protein lysates from HEK293 cells overexpressing FLAG-tagged C11orf46, C11orf46∆ or C11orf46^R236H (doxycycline-inducible); co-precipitates read by immunoblot
T1 sequence: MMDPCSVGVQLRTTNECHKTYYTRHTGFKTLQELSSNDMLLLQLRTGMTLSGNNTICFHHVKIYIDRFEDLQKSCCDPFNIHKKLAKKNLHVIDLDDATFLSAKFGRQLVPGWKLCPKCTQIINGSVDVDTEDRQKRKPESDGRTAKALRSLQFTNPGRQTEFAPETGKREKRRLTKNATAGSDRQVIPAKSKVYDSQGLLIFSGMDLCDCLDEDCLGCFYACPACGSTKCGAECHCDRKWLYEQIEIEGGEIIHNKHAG

[2] = target: T2, FLAG-HA-tagged full length C11orf46 (human) (UniProt Q8N8R7); test: as above
T2 sequence: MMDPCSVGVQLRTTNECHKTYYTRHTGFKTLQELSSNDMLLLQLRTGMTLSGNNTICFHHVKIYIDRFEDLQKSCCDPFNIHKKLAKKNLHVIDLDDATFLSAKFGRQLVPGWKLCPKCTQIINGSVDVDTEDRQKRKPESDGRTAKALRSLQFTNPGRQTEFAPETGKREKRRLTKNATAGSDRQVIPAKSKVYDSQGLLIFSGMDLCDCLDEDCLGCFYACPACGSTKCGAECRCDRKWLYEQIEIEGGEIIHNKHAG

[3] = target: T3, C11orf46, endogenous in HeLa (human (endogenous in HeLa)) (UniProt Q8N8R7); test: co-IP; mouse anti-C11orf46 antibody in HeLa cells
T3 sequence: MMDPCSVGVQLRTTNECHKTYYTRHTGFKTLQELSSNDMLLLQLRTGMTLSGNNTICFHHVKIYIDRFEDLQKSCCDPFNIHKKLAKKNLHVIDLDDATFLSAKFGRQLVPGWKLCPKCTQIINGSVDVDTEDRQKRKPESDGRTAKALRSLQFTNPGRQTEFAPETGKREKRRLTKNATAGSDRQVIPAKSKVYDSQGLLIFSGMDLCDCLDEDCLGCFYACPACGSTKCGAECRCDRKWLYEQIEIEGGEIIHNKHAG

Molecule: KRAB associated protein (KAP1), endogenous in HEK293 (from UniProt Q13263 1-835)
- binding [1]: binds
- binding [2]: binds

Molecule: heterochromatin-associated protein 1gamma (HP1γ), endogenous in HeLa (from UniProt Q13185 1-183)
- binding [3]: binds

B1: MBD-containing-associated factor (MCAF1), endogenous in HEK293 (protein, UniProt Q6VMQ6 1-1270)
chain: MDSLEEPQKKVFKARKTMRVSDRQQLEAVYKVKEELLKTDVKLLNGNHENGDLDPTSPLENMDYIKDKEEVNGIEEICFDPEGSKAEWKETPCILSVNVKNKQDDDLNCEPLSPHNITPEPVSKLPAEPVSGDPAPGDLDAGDPASGVLASGDSTSGDPTSSEPSSSDAASGDATSGDAPSGDVSPGDATSGDATADDLSSGDPTSSDPIPGEPVPVEPISGDCAADDIASSEITSVDLASGAPASTDPASDDLASGDLSSSELASDDLATGELASDELTSESTFDRTFEPKSVPVCEPVPEIDNIEPSSNKDDDFLEKNGADEKLEQIQSKDSLDEKNKADNNIDANEETLETDDTTICSDRPPENEKKVEEDIITELALGEDAISSSMEIDQGEKNEDETSADLVETINENVIEDNKSENILENTDSMETDEIIPILEKLAPSEDELTCFSKTSLLPIDETNPDLEEKMESSFGSPSKQESSESLPKEAFLVLSDEEDISGEKDESEVISQNETCSPAEVESNEKDNKPEEEEQVIHEDDERPSEKNEFSRRKRSKSEDMDNVQSKRRRYMEEEYEAEFQVKITAKGDINQKLQKVIQWLLEEKLCALQCAVFDKTLAELKTRVEKIECNKRHKTVLTELQAKIARLTKRFEAAKEDLKKRHEHPPNPPVSPGKTVNDVNSNNNMSYRNAGTVRQMLESKRNVSESAPPSFQTPVNTVSSTNLVTPPAVVSSQPKLQTPVTSGSLTATSVLPAPNTATVVATTQVPSGNPQPTISLQPLPVILHVPVAVSSQPQLLQSHPGTLVTNQPSGNVEFISVQSPPTVSGLTKNPVSLPSLPNPTKPNNVPSVPSPSIQRNPTASAAPLGTTLAVQAVPTAHSIVQATRTSLPTVGPSGLYSPSTNRGPIQMKIPISAFSTSSAAEQNSNTTPRIENQTNKTIDASVSKKAADSTSQCGKATGSDSSGVIDLTMDDEESGASQDPKKLNHTPVSTMSSSQPVSRPLQPIQPAPPLQPSGVPTSGPSQTTIHLLPTAPTTVNVTHRPVTQVTTRLPVPRAPANHQVVYTTLPAPPAQAPLRGTVMQAPAVRQVNPQNSVTVRVPQTTTYVVNNGLTLGSTGPQLTVHHRPPQVHTEPPRPVHPAPLPEAPQPQRLPPEAASTSLPQKPHLKLARVQSQNGIVLSWSVLEVDRSCATVDSYHLYAYHEEPSATVPSQWKKIGEVKALPLPMACTLTQFVSGSKYYFAVRAKDIYGRFGPFCDPQSTDVISSTQSS
- binding [1]: binds
- binding [2]: binds

B2: MCAF1, endogenous in HeLa (protein, UniProt Q6VMQ6 1-1270)
chain: MDSLEEPQKKVFKARKTMRVSDRQQLEAVYKVKEELLKTDVKLLNGNHENGDLDPTSPLENMDYIKDKEEVNGIEEICFDPEGSKAEWKETPCILSVNVKNKQDDDLNCEPLSPHNITPEPVSKLPAEPVSGDPAPGDLDAGDPASGVLASGDSTSGDPTSSEPSSSDAASGDATSGDAPSGDVSPGDATSGDATADDLSSGDPTSSDPIPGEPVPVEPISGDCAADDIASSEITSVDLASGAPASTDPASDDLASGDLSSSELASDDLATGELASDELTSESTFDRTFEPKSVPVCEPVPEIDNIEPSSNKDDDFLEKNGADEKLEQIQSKDSLDEKNKADNNIDANEETLETDDTTICSDRPPENEKKVEEDIITELALGEDAISSSMEIDQGEKNEDETSADLVETINENVIEDNKSENILENTDSMETDEIIPILEKLAPSEDELTCFSKTSLLPIDETNPDLEEKMESSFGSPSKQESSESLPKEAFLVLSDEEDISGEKDESEVISQNETCSPAEVESNEKDNKPEEEEQVIHEDDERPSEKNEFSRRKRSKSEDMDNVQSKRRRYMEEEYEAEFQVKITAKGDINQKLQKVIQWLLEEKLCALQCAVFDKTLAELKTRVEKIECNKRHKTVLTELQAKIARLTKRFEAAKEDLKKRHEHPPNPPVSPGKTVNDVNSNNNMSYRNAGTVRQMLESKRNVSESAPPSFQTPVNTVSSTNLVTPPAVVSSQPKLQTPVTSGSLTATSVLPAPNTATVVATTQVPSGNPQPTISLQPLPVILHVPVAVSSQPQLLQSHPGTLVTNQPSGNVEFISVQSPPTVSGLTKNPVSLPSLPNPTKPNNVPSVPSPSIQRNPTASAAPLGTTLAVQAVPTAHSIVQATRTSLPTVGPSGLYSPSTNRGPIQMKIPISAFSTSSAAEQNSNTTPRIENQTNKTIDASVSKKAADSTSQCGKATGSDSSGVIDLTMDDEESGASQDPKKLNHTPVSTMSSSQPVSRPLQPIQPAPPLQPSGVPTSGPSQTTIHLLPTAPTTVNVTHRPVTQVTTRLPVPRAPANHQVVYTTLPAPPAQAPLRGTVMQAPAVRQVNPQNSVTVRVPQTTTYVVNNGLTLGSTGPQLTVHHRPPQVHTEPPRPVHPAPLPEAPQPQRLPPEAASTSLPQKPHLKLARVQSQNGIVLSWSVLEVDRSCATVDSYHLYAYHEEPSATVPSQWKKIGEVKALPLPMACTLTQFVSGSKYYFAVRAKDIYGRFGPFCDPQSTDVISSTQSS
- binding [3]: binds
